The list shows a part of the results. Further columns of the screen follow, without active or inactive calls. The list favours compounds with an active or inconclusive main result. Potencies come from curve fits of mixed quality, noted in brackets.
Test: qHTS Assay for Lipid Storage Modulators in Drosophila S3 Cells;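 as to cell number change: cells counted by Cell Tracker Red CMTPX staining in the red channel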
Conditions: BODIPY lipid droplet fluorescence, 18-24 h; for cell number change: measured here: cell count max response, cells fed with added oleic acid
Summary of the method: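 Drosophila S3 cells loaded with oleic acid (400 uM, as added) and compounds at several concentrations; lipid droplets imaged by 488-nm laser-scanning cytometry, 500–530 nm intensity and object ratio to cell channel. Percent activity normalized to 20 uM Triacsin C.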

[1] = measured here: cell number channel AC50, cells fed with added oleic acid
[2] = measured here: lipid fluorescence (Fed channel) AC50, cells fed with added oleic acid

## CC1CCCN(C(=O)Cn2nnc(-c3cccnc3)n2)C1 (centres undefined)
  cell number change: 33.4%
[1]
  AC50: 1.64 µM [rising, full curve]
[2]
  AC50: 10.3 µM [falling, partial curve]

## CCC(=O)N(Cc1cc2cc(OC)ccc2[nH]c1=O)c1ccc(C)cc1
  cell number change: 2.19%
[2]
  AC50: 29.1 µM [falling, single point]

## Cn1c(=O)oc2cc(S(=O)(=O)NCCN3CCN(c4ccccc4F)CC3)ccc21
  cell number change: -15.1%
[2]
  AC50: 0.206 µM [falling, partial curve]

## Cn1c2ccccc2c2cnn(CC(=O)Nc3ccc(Cl)cc3)c(=O)c21
  cell number change: 19.6%
[2]
  AC50: 16.4 µM [rising, single point]

## CCN(Cc1nc2ccccc2c(=O)[nH]1)C(=O)C1CC(=O)N(c2cccc3ccccc23)C1 (centres undefined)
  cell number change: 11.9%
[2]
  AC50: 0.00461 µM [falling, full curve, poor fit]

## Cc1ccc(NC(=O)c2cccc3c2-c2ccccc2C3=O)cc1C
  cell number change: 36.4%
[1]
  AC50: 29.1 µM [rising, single point]

## COc1cccc(NC(=O)CN(C)C(=O)c2cc(-c3ccccc3)nc3ccccc23)c1
  cell number change: 25%
[2]
  AC50: 0.651 µM [rising, partial curve, poor fit]

## CCN(CC)CCCNc1nc(CN2CCOCC2)nc2sc3c(c12)CCC3
[2]
  AC50: 25.9 µM [rising, single point]

## Cc1ccc(OCCn2cc(/C=C(\C#N)C(=O)NCC3CCCO3)c3ccccc32)cc1 (centres undefined)
  cell number change: 21.3%
[2]
  AC50: 16.4 µM [rising, partial curve]

## Cc1cc(C(=O)OCC(=O)N2CCc3ccccc32)ccc1[N+](=O)[O-]
  cell number change: 13.6%
[2]
  AC50: 3.26 µM [falling, single point]

## O=C(CSc1nnc2c3ccccc3c3ccccc3c2n1)Nc1ccccc1F
  cell number change: -5.59%

## CC(=O)c1c(C)oc2ccc(N(C(=O)c3ccncc3)S(=O)(=O)c3ccccc3)cc12
  cell number change: 1.08%
[2]
  AC50: 0.206 µM [rising, partial curve, poor fit]

## COc1ccc(NC(=O)CCC(=O)OCc2ccc([N+](=O)[O-])cc2)cc1
  cell number change: -19.3%

## Cc1cnccc1CN(C)C(=O)C1CCC(=O)N(Cc2ccccc2F)C1 (centres undefined)
  cell number change: 20.5%
[2]
  AC50: 29.1 µM [rising, single point]

## Cc1ccc(OCC(=O)NCCNC(=O)c2ccc(C)nc2)cc1
  cell number change: 6.96%

## O=C(Nc1ccc(S(=O)(=O)NC2=NCCCCC2)cc1)c1ccc([N+](=O)[O-])s1
  cell number change: -34.3%

## C/C(=N\N=C1\NC(=O)C(CC(=O)Nc2ccc(Cl)cc2)S1)c1ccco1 (centres undefined)
  cell number change: -2.07%
[2]
  AC50: 0.731 µM [rising, full curve, poor fit]

## O=C(Nc1ccccc1C(=O)Nc1ccccc1C(=O)NCc1ccco1)c1ccco1
  cell number change: -10.5%
[2]
  AC50: 0.13 µM [rising, full curve, poor fit]

## CCOc1cc(/C=C2\SC(=N)N(c3nccs3)C2=O)ccc1OCCN1CCOCC1
  cell number change: -69.1%
[1]
  AC50: 16.4 µM [falling, single point]
[2]
  AC50: 23.1 µM [falling, single point]

## CC(=O)Nc1ccc(C(=O)OCc2ccc(Cl)c(Cl)c2)cc1
  cell number change: 5.35%
[2]
  AC50: 3.26 µM [rising, full curve, poor fit]

## Cc1cc2c(cc1S(=O)(=O)N1CCN(c3ccc(Cl)cc3)CC1)OCCN2C
  cell number change: 4.61%

## CCOc1cc(N2CCOCC2)c(OCC)cc1NC(=O)COC(=O)c1cc2ccccc2cc1O
  cell number change: 5.89%
[2]
  AC50: 6.51 µM [rising, single point]

## CCCCC(=O)NNC(=S)NC(=O)c1cccc([N+](=O)[O-])c1
  cell number change: -15.7%

## CC1CCC2(CC1)NC(=O)N(CC(=O)c1ccc(CNC(=O)C(C)(C)C)s1)C2=O (centres undefined)
  cell number change: -30.8%
[1]
  AC50: 2.31 µM [falling, full curve, poor fit]
[2]
  AC50: 0.731 µM [falling, full curve]

## CSc1ncccc1C(=O)N(C)CC(=O)Nc1cccc(F)c1
  cell number change: 3.17%
[2]
  AC50: 29.1 µM [rising, single point]

## Cc1ccccc1CNC(=O)C1CCC(=O)N(Cc2cccc(F)c2)C1 (centres undefined)
  cell number change: -7.37%
[2]
  AC50: 0.58 µM [rising, single point]

## O=C(O)CNC(=O)/C(=C/c1ccco1)NC(=O)/C=C/c1ccccc1
  cell number change: 79.5%
[1]
  AC50: 18.4 µM [rising, single point]
[2]
  AC50: 32.6 µM [falling, single point]

## CCCCN(C)C1=Nc2cccc3cccc1c23
  cell number change: -83.1%
[1]
  AC50: 14.6 µM [falling, partial curve]

## CCOC(=O)C(NC(=O)c1cccc(Cl)c1)(OCc1ccccc1)C(F)(F)F (centres undefined)
  cell number change: -52.1%
[1]
  AC50: 9.2 µM [falling, partial curve]
[2]
  AC50: 23.1 µM [falling, single point]

## Cc1ccc(SCC(=O)Nc2ccc3c(c2)C(=O)N(C)C3=O)cc1
  cell number change: -6.42%

## COc1ccccc1NC(=O)Nc1nn(C)c2cccc(OC)c12
  cell number change: -13.9%
[2]
  AC50: 0.92 µM [falling, full curve, poor fit]

## Cc1c(NC(=O)C(C)OC(=O)c2ccc(NC(=O)CC#N)cc2)c(=O)n(-c2ccccc2)n1C (centres undefined)
  cell number change: -37.3%
[1]
  AC50: 3.26 µM [falling, full curve, poor fit]

## COc1ccc(Cc2nnc(SCC(=O)c3ccccc3)o2)cc1
  cell number change: 55.3%
[1]
  AC50: 1.03 µM [rising, full curve]

## Cn1cnnc1SCC(=O)c1c(N)n(Cc2ccccc2)c(=O)n(C)c1=O
  cell number change: -40.1%
[1]
  AC50: 4.61 µM [falling, full curve, poor fit]

## Cc1ccc(C)c(CNS(=O)(=O)c2c(C(=O)N3CCCC3)c(C)n(C)c2C)c1
  cell number change: -9.39%
[2]
  AC50: 29.1 µM [rising, single point]

## Cc1ccc(CNC(=O)N2CCN(S(=O)(=O)c3ccccc3)CC2)cc1
  cell number change: -1.39%
[2]
  AC50: 0.651 µM [falling, partial curve, poor fit]

## Cc1ccc2cc3c(NC(=O)CC(C)C)nn(C)c3nc2c1
  cell number change: 5.24%
[2]
  AC50: 7.31 µM [rising, single point]

## CC(C)(C)C(=O)N1CCN(c2nc3ccc(Br)cc3s2)CC1
  cell number change: -20.1%

## Cc1c(Cc2ccccc2)c(=O)oc2cc(OCC(=O)NC(Cc3ccc(Cl)cc3)C(=O)O)ccc12 (centres undefined)
  cell number change: 10%
[2]
  AC50: 29.1 µM [rising, single point]
